System: MCF7
Test: Cytotoxicity against human MCF7 cells by resazurin microplate assay
Type: functional, cell-based
In short: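 Resazurin microplate assay on human cancer lines: KB (oral epidermoid carcinoma), MCF-7 (breast cancer) and NCI-H187 (small-cell lung cancer). IC50 values were read from the assay, with doxorubicin hydrochloride as the reference standard.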

Compound: COc1cccc2c1C(=O)c1c(O)c3c(c(O)c1C2=O)C[C@@](O)(C(=O)CO)C[C@@H]3O[C@H]1C[C@H](N)[C@H](O)[C@H](C)O1 [DOXORUBICIN]
- IC50: 2300 nM
